In all, about 53,000 sequences went through this assay and about 3,700 (7%) were called active.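 How the source made its calls: active means gene knockdowns whose robust z-score for IL-1 alpha signal is at least 2 or at most -2, so actives lie on both sides; inactive means the rest.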 Some of the results follow.
Assay: Components of the Cytosolic LPS Sensing Pathway: Gene Identification via Genome-wide siRNA Screen;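 further: robust z of the log signal after scaling to non-targeting control siRNA wells of the plate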
Settings: RAW264.7 macrophages, IL-1a HTRF, actives lie on both sides, screened at 100 nM (by protocol), cells primed 5 h with Pam3CSK4 first
Procedure, shortened: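 RAW264.7 mouse macrophages reverse-transfected with single siRNAs (100 nM final) for 48h, primed with Pam3CSK4 for 5 hours, then transfected with LipidA for 24 hour. Supernatant IL-1a read by HTRF; values normalized to negative-control median, log-transformed robust z-scores.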

Sequence	z-score
CCCUCGGUAGCAAUAUAAATT against Ncoa2	inactive: -0.0112
GGCUCUUGUUGUGAAGAAGTT against Tspan3	inactive: 0.67
GGAGGUAAAGGAAAACUCUTT against Fmo1	inactive: 0.27
GUGCAAAUUACAGAAAUUCTT against Mex3b	inactive: 0.43
CCUAAUCCUUUAGUGUCUATT against Zmym2	inactive: -0.0463
GGCUUUGGAAUCAUUCAUATT against Zfp759	inactive: -0.534
CCCUGUAUAUAUGAUGACATT against Ldhd	inactive: -1.83
GAUGAAUACAUGGAGUCUCTT against C1qtnf3	inactive: 0.265
GGGUUUUCAGGAGUAUGUCTT against Vmn1r230	inactive: -1.48
GGCUCAGAUCAGAACUACGTT against Inpp4a	inactive: -0.129
CGACCUACUUGGGAUGAUGTT against Pea15b	inactive: 0.683
GGAUGAUUGCUGACGUGGATT against Bax	inactive: 0.299
GCUGUACUAUGCUAAAAGGTT against Ghr	inactive: 0.13
GGAAGGACAAUCAGUUCCUTT against Thsd7b	inactive: 0.999
GGGUGAAAACUCAUUUUAUTT against St6gal2	inactive: -0.33
GCCUUCAUCACUUACACGUTT against Sstr5	inactive: 1.35
GCAAACUUAAAGUGUCUCUTT against Ewsr1	inactive: -0.769
GGUCUUCGAAACACAGCUGTT against Exoc3l2	inactive: -0.402
GGACACUUUCCAAUGGUGATT against Npsr1	inactive: 1.25
GGACCAGCAAACUAAGAGATT against 4930449I24Rik	inactive: -0.107
GGAUUUUGGAUGAAAACACTT against Tmem106a	inactive: 0.302
GGACAAGUUUGACUGUUACTT against Als2cl	inactive: 0.158

Sequence	z-score
CCUCCUGACCUUAAUCUUGTT against P2rx1	inactive: 0.507
GCAGAUGUCUCAUUUCCGUTT against Car2	inactive: 0.186
GGCAGAGCCUAUGAUCUAUTT against Gprin1	inactive: -0.582
CGGGCACUAGAACAAGAACTT against Arvcf	inactive: -0.347
GGGCUCGACUCUUAAUUGUTT against Mapkapk5	inactive: 0.282
GGGCAAAGUACUCUACACCTT against Fgd5	inactive: -0.736
GCAUAUCCUCUUUCGAAGGTT against Adra2c	inactive: 1.39
GGUGCUAAGUUUUGUAUCUTT against Prpf38a	inactive: -0.967
GGACAAAAGCAAAGAAAAGTT against R3hdm2	inactive: -0.822
GGAGACUGGAGAGCAAAAUTT against Krt18	inactive: -1.44
GGUUCUGAAAGAGUGUUAGTT against Htatsf1	inactive: -1.58
GGAUAAGAUGGAAAUCCGUTT against Xpo6	inactive: -0.594
GGUCAUAUGGAGAACGAACTT against Snn	inactive: 1.7
GGGAGCAGAAGCGAAAAGATT against Espn	inactive: 0.218
GGAAAUCGAGGACUUAUACTT against Wnk4	active: 3.54
GCCAUAGCAUAGCUCCCAGTT against Fastkd1	inactive: -0.859
GGAAAUACAGAGGGCGAAATT against Espn	inactive: 1.9
GAAAACUCAAACAGCAUAUTT against Vmn1r216	inactive: 0.833
CCCUGUUAUCCGAUUGGAUTT against Serpina7	inactive: 0.182
GGAAGACUGUAACACCAUCTT against Ankrd61	inactive: -1.47
GCCGCCCAGACAGAUAAACTT against Bag3	inactive: 1.18
GGCAUGUGUGAGAAUCAAUTT against Clec2h	inactive: -0.732

Sequence	z-score
GGCAAACCUCAAUGAGUUUTT against Catsperd	inactive: 0.114
GCAACGUGUCUUUUCAAACTT against P2ry10b	inactive: -0.223
AUUUUGGUGGAGGUAACUATT against Hnrnpa3	inactive: -1.67
GGAGUCUUGUCAUCUCCAUTT against Nup35	inactive: -0.79
GCUCGCCAGAAAAUUGACCTT against Pmm1	inactive: -0.979
GGUCACAGCCUACAAUCGATT against Sgca	inactive: -1.4
GGAAAUUGGGACUCACAUCTT against Trappc13	inactive: -0.0912
GGAAUUGAUCCCAUUUUAATT against Ap4b1	inactive: 0.281
CCCGUAUUUGGUGGUCUGCTT against Hyal1	inactive: -0.556
GCUCUUAAGGUCUUUUAAATT against Crkl	inactive: -1.62
GCAUGCAUUCGUGAAGAAUTT against Plch1	inactive: 1.46
GCUACUUUGUCCCUCUUACTT against Olfr33	inactive: -0.0881
GGCUUUAAGAAUGUAUCGCTT against Dpp3	inactive: -0.751
GGAUAUCUCGGGUUGAAUUTT against Aurka	inactive: -1.38
GGAGAAACCUGGAAGAAGATT against Traf3ip3	inactive: -0.345
CCUUUCACAUUCAUGUGUATT against Rgs19	inactive: -0.0448
GCUCGAGAGUACUGUAGGCTT against Kat8	active: -2.41
GGGAGGUGGAAAGCUCUCUTT against Olfr1256	inactive: 0.613
GCAUUUGGAAACGAUCAAGTT against Chst4	inactive: -0.11
AUUGGUUUUCUGGUGUUAATT against Olfr553	inactive: -0.253
GGGAGCUUCUUUUUUCCAATT against Ctf1	inactive: 0.645
GGGUUUGUUGUCAUUCCUCTT against Mfsd14a	inactive: -0.844

Sequence	z-score
GCAUUAUAAAAAGGUUCCGTT against Atp2b1	inactive: 1.81
GGCAAGAGUGCCUCUGAAATT against Ccnb1	inactive: -0.037
GCUGGGACAGAAAGAACAATT against Ndufa4	inactive: 0.968
GCUACUCCUUAGAACACGGTT against Spry1	inactive: 0.839
GCUUUUGUAGUGACCAGCATT against A730045E13Rik	inactive: -0.225
GGCAGUAUGAGAGGUAUUUTT against Entpd7	inactive: 0.345
GCAAAAGGUGCUCAUUUAATT against Phf14	inactive: 0.736
GGAAGAAAGAAUUGAACUUTT against Add3	inactive: 1.02
GCCCACAGUCAUUAAACUATT against Nipal4	inactive: 0.723
CGACUGUUACGUUGUUUGGTT against Srp9	inactive: -1.96
CCUUGGGAAUUACCCAGAGTT against Cage1	inactive: -0.565
ACCCUUCCCUAUUCGUACATT against 1700016K19Rik	inactive: -1.11
GGUUAAAAGAGGAGAUGUUTT against Ttc1	inactive: -1.33
GCUACAUAGCCCUGAUUGCTT against Foxs1	inactive: -0.689
GGCUUUUCAAUAUAGUUCCTT against Reg3a	inactive: 0.237
CGGUGAUAACUUCAAGACGTT against Rbp2	inactive: -0.192
GCCAGUUCACCUGAUCUUATT against 2610507B11Rik	inactive: 0.355
GCGACUGACCUUCAAACUGTT against Piwil4	inactive: 0.193
GGUUCCACAGUGGCAAAUGTT against Vmn1r202	inactive: 0.957
GGACCUUGACGUACAUCAATT against Prelid3a	inactive: 1.29
GGAGAUUGUCAACAAAUGATT against Slc25a16	inactive: -1.4
GGGAAUGUGGCUUCACUUUTT against 2210409E12Rik	inactive: 1.14

A section taken from the entries so far, for reference:
Sequence	z-score
GGAUAUCUCGGGUUGAAUUTT against Aurka	inactive: -1.38
GGAGAAACCUGGAAGAAGATT against Traf3ip3	inactive: -0.345
CCUUUCACAUUCAUGUGUATT against Rgs19	inactive: -0.0448
GCUCGAGAGUACUGUAGGCTT against Kat8	active: -2.41
GGGAGGUGGAAAGCUCUCUTT against Olfr1256	inactive: 0.613
GCAUUUGGAAACGAUCAAGTT against Chst4	inactive: -0.11
AUUGGUUUUCUGGUGUUAATT against Olfr553	inactive: -0.253
GGGAGCUUCUUUUUUCCAATT against Ctf1	inactive: 0.645
GGGUUUGUUGUCAUUCCUCTT against Mfsd14a	inactive: -0.844
GCAUUAUAAAAAGGUUCCGTT against Atp2b1	inactive: 1.81
GGCAAGAGUGCCUCUGAAATT against Ccnb1	inactive: -0.037
GCUGGGACAGAAAGAACAATT against Ndufa4	inactive: 0.968
GCUACUCCUUAGAACACGGTT against Spry1	inactive: 0.839
GCUUUUGUAGUGACCAGCATT against A730045E13Rik	inactive: -0.225
GGCAGUAUGAGAGGUAUUUTT against Entpd7	inactive: 0.345
GCAAAAGGUGCUCAUUUAATT against Phf14	inactive: 0.736
GGAAGAAAGAAUUGAACUUTT against Add3	inactive: 1.02
GCCCACAGUCAUUAAACUATT against Nipal4	inactive: 0.723
CGACUGUUACGUUGUUUGGTT against Srp9	inactive: -1.96
CCUUGGGAAUUACCCAGAGTT against Cage1	inactive: -0.565
ACCCUUCCCUAUUCGUACATT against 1700016K19Rik	inactive: -1.11
GGUUAAAAGAGGAGAUGUUTT against Ttc1	inactive: -1.33
GCUACAUAGCCCUGAUUGCTT against Foxs1	inactive: -0.689
GGCUUUUCAAUAUAGUUCCTT against Reg3a	inactive: 0.237
CGGUGAUAACUUCAAGACGTT against Rbp2	inactive: -0.192
GCCAGUUCACCUGAUCUUATT against 2610507B11Rik	inactive: 0.355
GCGACUGACCUUCAAACUGTT against Piwil4	inactive: 0.193
GGUUCCACAGUGGCAAAUGTT against Vmn1r202	inactive: 0.957

(cont.)

Sequence	z-score
GGAACAAGGAAGUUAAGGATT against Olfr1044	inactive: 0.251
GCCUAUAAGCCUAAUGAAATT against Rnf133	inactive: -0.664
GGUAAUAACCCUUAAUAAGTT against Akirin2	inactive: 0.572
GGGAAGAGAAUGAUUAAAUTT against Zmat4	inactive: -0.933
GGUUGUGUUCAAGAAAGGGTT against Gcgr	inactive: -0.225
CCGGAAAUUUUCUUUGCCCTT against Sec23ip	inactive: -1.12
GCUGAUGUGAAUCCAUCCATT against Rbck1	inactive: -0.212
GGUGAGCUUGGUUUCUAAATT against Gdf15	active: 2.28
GGAGAUUUUCAUGUUAUCATT against Eral1	inactive: -1.39
GGUUCUUGAGCCUAAACAATT against Cd22	inactive: 0.522
GGAGACCCUUGAUAGCCCATT against Celf6	inactive: -1.26
CGUGCAGUGUGCUUCACAATT against Smarcad1	inactive: -1.89
CGACAUUGCCUGGAACUUUTT against Gpx1	inactive: 1.2
GGCCAUUGUGAAAUCCAGCTT against Chrnb3	inactive: 0.00234
GCACCAGCUCUUUUGAUAUTT against L2hgdh	inactive: 0.526
GGACCACACGUCAAAAUGATT against Pyurf	inactive: -0.842
GGCAGGAUCACAGUCCUAGTT against Pcp4	inactive: 0.432
GGAGCUCUAAAAUUGACUUTT against Zfp92	inactive: 1.17

Reference: PubChem BioAssay AID1508600 (Functional Genomics Laboratory (NCATS/FGL), 2020)
